Results published in patent US20120053076A1, “METHODS FOR IDENTIFICATION” (Cambridge Enterprise Limited, priority 2009, published 2012).
The structures given here were assigned with low confidence; some may be wrong.

The chains behind the UniProt entries cited, without tags or fusion partners.
UniProt P28223, whole entry: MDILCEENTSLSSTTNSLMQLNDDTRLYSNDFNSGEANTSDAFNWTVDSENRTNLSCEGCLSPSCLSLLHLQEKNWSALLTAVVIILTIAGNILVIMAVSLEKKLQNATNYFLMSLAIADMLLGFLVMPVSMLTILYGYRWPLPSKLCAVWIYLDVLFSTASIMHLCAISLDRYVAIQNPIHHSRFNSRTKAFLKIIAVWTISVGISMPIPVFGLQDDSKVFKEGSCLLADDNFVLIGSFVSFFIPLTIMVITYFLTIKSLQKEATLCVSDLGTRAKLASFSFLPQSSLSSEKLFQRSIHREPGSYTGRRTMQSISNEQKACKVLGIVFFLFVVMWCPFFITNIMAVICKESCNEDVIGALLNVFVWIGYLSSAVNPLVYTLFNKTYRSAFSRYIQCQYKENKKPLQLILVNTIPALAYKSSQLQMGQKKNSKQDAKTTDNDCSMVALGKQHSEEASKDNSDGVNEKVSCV

Experiments:
THP-1 cells = assay: MCP-1 induced THP-1 cell migration, Transwell assay; format: cell-based, human; settings: MCP-1 25 ng/ml
Jurkat T cells = assay: SDF-1α induced migration of parental Jurkat T cells; format: cell-based, human
5HT2a receptor = 5HT2a receptor (Homo sapiens, UniProt P28223); assay: [3H]-ketanserin binding to 5HT2a receptor membranes; settings: 1 nM [3H]-ketanserin

CN1CC(C(=O)NC(CC(N)=O)C(=O)O)CC2c3cccc4[nH]cc(c34)CC21 (stereo not drawn)
Inhibition of MCP-1 induced THP-1 cell migration, in words (THP-1 cells): neither agent inhibits | Inhibition of SDF-1α induced migration of Jurkat T cells, in words (Jurkat T cells): neither agent inhibits | Apparent Ka, inhibition of [3H]-ketanserin binding (5HT2a receptor): 23 ± 5 nM
